Values from PubChem BioAssay AID1224828 (NIAID, 2016)
This is one part, drawn at random, of about 17,000 reagents. Of all reagents, 762 (4.5%) are marked active. 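Active calls include both raised and lowered p65 entry, mostly lowered; wells with fewer than 50 cells lack a z-score.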 The raw values are shown without normalisation. Some reagents were tested in more than one well and are listed for each.

Purpose: 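Regulators linking TLR4 signalling to p65 nuclear translocation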 (primary screen)
Cells: mouse RAW264.7 G9 macrophage reporter cells (GFP-p65, Tnf promoter-mCherry)
Knock-down reagent: siRNA pool against mouse genes, 100 nM
Timing: 2 days siRNA transfection, then 40 min LPS before fixation
Treatment: LPS (Salmonella minnesota R595) at 10 ng/ml
Read-out: 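Imaged p65 nuclear translocation ratio, normalised to the plate median, converted to robust z-scores and averaged across two replicates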
Direction: p65 translocation robust z-score: higher = more nuclear NF-kappaB p65 after LPS than the plate median; nuclear/cytoplasmic p65 ratio: higher = more nuclear NF-kappaB p65
Call rule: 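Active if robust z is above 3.3 (negative regulators) or below -1.56, the Tlr4 control median (positive regulators); activity score 50 or more; control wells not called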
Meaning of the calls: active = hit (p65 shift raised or lowered); inactive = no clear change

| target gene | p65 translocation robust z-score | nuclear/cytoplasmic p65 ratio, rep 1 | nuclear/cytoplasmic p65 ratio, rep 2 | low cell count flag | Outcome |
| --- | --- | --- | --- | --- | --- |
| Rhbdl3 (GeneID 246104) | -0.18 | 1.38 | 1.21 | enough cells to score | inactive |
| 6030452D12Rik (GeneID 330837) | 1.03 | 1.39 | 1.7 | enough cells to score | inactive |
| Adrb2 (GeneID 11555) | -0.18 | 1.59 | 1.41 | enough cells to score | inactive |
| Adrb2 (GeneID 11555) | -0.03 | 1.51 | 1.57 | enough cells to score | inactive |
| Sypl1 (GeneID 19027) | – | 1.44 | 1.18 | fewer than 50 cells per well; well left out of scoring | inactive |
| Cryab (GeneID 12955) | -1.59 | 1.3 | 1.14 | enough cells to score | active |
| Gstm5 (GeneID 14866) | -0.64 | 1.37 | 1.27 | enough cells to score | inactive |
| Negr1 (GeneID 320840) | -3.05 | 1.35 | 1.08 | enough cells to score | active |
| Xpc (GeneID 22591) | 0.72 | 1.58 | 1.64 | enough cells to score | inactive |
| Smcr8 (GeneID 237782) | -0.27 | 1.39 | 1.26 | enough cells to score | inactive |
| Arl6ip5 (GeneID 65106) | 0.66 | 1.45 | 1.68 | enough cells to score | inactive |
| Foxp3 (GeneID 20371) | 0.3 | 1.45 | 1.43 | enough cells to score | inactive |
| LOC381853 | 0.39 | 1.53 | 1.67 | enough cells to score | inactive |
| Capn12 (GeneID 60594) | 0.43 | 1.62 | 1.89 | enough cells to score | inactive |
| Pp2d1 (GeneID 110332) | – | 1.22 | 1.84 | fewer than 50 cells per well; well left out of scoring | inactive |
| Ezh1 (GeneID 14055) | -0.51 | 1.17 | 1.29 | enough cells to score | inactive |
| Or5al6 (GeneID 404323) | 0.08 | 1.7 | 1.56 | enough cells to score | inactive |
| Npr3 (GeneID 18162) | 0.62 | 1.6 | 1.68 | enough cells to score | inactive |
| Grhl2 (GeneID 252973) | 1.45 | 1.42 | 1.35 | enough cells to score | inactive |
| Epas1 (GeneID 13819) | 0.09 | 1.49 | 1.37 | enough cells to score | inactive |
| Or51k2 (GeneID 258351) | 0.95 | 1.61 | 1.35 | enough cells to score | inactive |
| D930030K17Rik (GeneID 319422) | -0.66 | 1.41 | 1.52 | enough cells to score | inactive |
| Gucy1a1 (GeneID 60596) | 0.3 | 1.47 | 1.41 | enough cells to score | inactive |
| Nt5dc1 (GeneID 319638) | 1.23 | 1.44 | 1.63 | enough cells to score | inactive |
| Fxyd7 (GeneID 57780) | 1.68 | 1.85 | 1.68 | enough cells to score | inactive |
| Tmsb10 (GeneID 19240) | – | 1.46 | 1.15 | fewer than 50 cells per well; well left out of scoring | inactive |
| Ambp (GeneID 11699) | -0.39 | 1.39 | 1.79 | enough cells to score | inactive |
| Il10ra (GeneID 16154) | -0.6 | 1.39 | 1.27 | enough cells to score | inactive |
| Lag3 (GeneID 16768) | 0.71 | 1.52 | 1.52 | enough cells to score | inactive |
| Dnajc16 (GeneID 214063) | -1.97 | 1.05 | 1.05 | enough cells to score | active |
| Cst6 (GeneID 73720) | -1.01 | 1.43 | 1.61 | enough cells to score | inactive |
| D630003M21Rik (GeneID 228846) | -1.27 | 1.32 | 1.43 | enough cells to score | inactive |
| Adcy9 (GeneID 11515) | -1.92 | 1.27 | 1.44 | enough cells to score | active |
| Nipsnap2 (GeneID 14467) | -0.86 | 1.49 | 1.32 | enough cells to score | inactive |
| Ccl6 (GeneID 20305) | – | 1.31 | 1.44 | fewer than 50 cells per well; well left out of scoring | inactive |
| Pgrmc1 (GeneID 53328) | 0.21 | 1.52 | 1.44 | enough cells to score | inactive |
| Msantd5l (GeneID 193286) | 0.54 | 1.29 | 1.6 | enough cells to score | inactive |
| 4930563M21Rik (GeneID 75258) | – | 1.15 | 1.33 | fewer than 50 cells per well; well left out of scoring | inactive |
| Rpl37a (GeneID 19981) | – | 1.4 | 1.21 | fewer than 50 cells per well; well left out of scoring | inactive |
| Sprr2d (GeneID 20758) | 0.26 | 1.41 | 1.3 | enough cells to score | inactive |

Individual results from the entries so far.
Sprr2d (GeneID 20758), nuclear/cytoplasmic p65 ratio, rep 2: 1.3
Gstm5 (GeneID 14866), low cell count flag: enough cells to score
For “nuclear/cytoplasmic p65 ratio, rep 2”, Adcy9 (GeneID 11515) has 1.44
For “Outcome”, Or5al6 (GeneID 404323) is entered as inactive
6030452D12Rik (GeneID 330837), Outcome → inactive
Under “Outcome”, Foxp3 (GeneID 20371) has inactive
